This is an account of results in US20250289885A1.

Chains of the proteins cited; added tags and fusions are not shown. Residues count along the entry.
UniProt P46531, residues 19-1762: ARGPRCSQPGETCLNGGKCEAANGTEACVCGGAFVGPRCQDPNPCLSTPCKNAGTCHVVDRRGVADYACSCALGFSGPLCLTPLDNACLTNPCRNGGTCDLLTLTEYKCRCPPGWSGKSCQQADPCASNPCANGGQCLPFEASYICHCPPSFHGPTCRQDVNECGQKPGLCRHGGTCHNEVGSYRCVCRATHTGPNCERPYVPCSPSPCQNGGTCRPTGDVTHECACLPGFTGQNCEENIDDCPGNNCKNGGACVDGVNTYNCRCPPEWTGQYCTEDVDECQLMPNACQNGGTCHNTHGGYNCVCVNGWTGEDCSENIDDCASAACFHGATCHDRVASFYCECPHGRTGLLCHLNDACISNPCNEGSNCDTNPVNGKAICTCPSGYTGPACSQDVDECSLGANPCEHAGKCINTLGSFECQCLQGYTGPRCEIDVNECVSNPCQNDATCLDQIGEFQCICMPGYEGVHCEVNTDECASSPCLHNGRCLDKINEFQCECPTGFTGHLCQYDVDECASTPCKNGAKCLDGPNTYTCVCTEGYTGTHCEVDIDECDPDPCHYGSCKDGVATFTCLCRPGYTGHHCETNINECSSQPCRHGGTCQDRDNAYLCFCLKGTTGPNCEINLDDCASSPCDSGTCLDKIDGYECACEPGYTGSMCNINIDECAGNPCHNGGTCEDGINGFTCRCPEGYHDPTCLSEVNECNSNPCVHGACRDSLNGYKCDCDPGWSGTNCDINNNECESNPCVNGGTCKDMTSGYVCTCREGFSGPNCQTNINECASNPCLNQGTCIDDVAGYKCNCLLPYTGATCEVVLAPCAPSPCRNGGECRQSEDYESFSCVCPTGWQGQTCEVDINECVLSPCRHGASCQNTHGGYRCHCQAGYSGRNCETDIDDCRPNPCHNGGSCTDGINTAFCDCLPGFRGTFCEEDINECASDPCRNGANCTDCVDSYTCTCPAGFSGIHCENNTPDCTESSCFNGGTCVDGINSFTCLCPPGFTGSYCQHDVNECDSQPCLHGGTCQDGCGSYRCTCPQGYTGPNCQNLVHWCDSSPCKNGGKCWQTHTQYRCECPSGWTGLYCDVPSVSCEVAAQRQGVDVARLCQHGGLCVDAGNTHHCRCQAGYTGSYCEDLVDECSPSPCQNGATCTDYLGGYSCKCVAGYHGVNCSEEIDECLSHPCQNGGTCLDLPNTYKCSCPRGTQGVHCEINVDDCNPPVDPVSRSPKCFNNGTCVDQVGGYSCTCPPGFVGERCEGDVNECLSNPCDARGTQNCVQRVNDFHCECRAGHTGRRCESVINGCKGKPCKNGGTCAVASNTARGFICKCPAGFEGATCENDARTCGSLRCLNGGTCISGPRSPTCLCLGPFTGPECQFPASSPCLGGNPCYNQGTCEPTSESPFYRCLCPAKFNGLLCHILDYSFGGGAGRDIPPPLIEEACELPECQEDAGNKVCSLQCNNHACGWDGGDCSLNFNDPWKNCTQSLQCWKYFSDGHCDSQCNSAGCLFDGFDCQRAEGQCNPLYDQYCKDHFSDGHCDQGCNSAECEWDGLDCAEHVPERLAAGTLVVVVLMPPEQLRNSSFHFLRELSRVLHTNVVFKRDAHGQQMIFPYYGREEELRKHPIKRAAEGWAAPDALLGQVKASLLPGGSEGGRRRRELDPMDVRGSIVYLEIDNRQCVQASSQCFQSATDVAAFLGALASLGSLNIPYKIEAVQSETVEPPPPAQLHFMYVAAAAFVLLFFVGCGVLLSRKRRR

These are yes or no findings as the source states them, for the method shown. Some entries that bind do so weakly or less than the wild type.

The target of assay [1] is human Notch1-derived receptor overexpressed on CHO-K1 cells (human) (UniProt P46531). Description: fluorescence microscopy of JFX650-labelled probody on CHO-K1 cells overexpressing a human Notch1-derived receptor.
The target is the same in assay [2]. The assay can be described thus: fluorescence imaging of JFX650-labelled probody on CHO-K1 cells overexpressing a human Notch1-derived receptor.

B1: Brontictuzumab-based probody with the V1667D mutant human Notch1 NRR, TEV protease-cleaved (scFv, not shown: large carriers; small tags and cut ends)
scFv: QVQLVQSGAEVKKPGASVKISCKVSGYTLRGYWIEWVRQAPGKGLEWIGQILPGTGRTNYNEKFKGRVTMTADTSTDTAYMELSSLRSEDTAVYYCARFDGNYGYYAMDYWGQGTTVTVSSGGSSRSSSSGGGGSGGGGQAVVTQEPSLTVSPGGTVTLTCRSSTGAVTTSNYANWFQQKPGQAPRTLIGGTNNRAPGVPARFSGSLLGGKAALTLSGAQPEDEAEYYCALWYSNHWVFGGGTKLTVL
modifications: HaloTag labelled with JFX650 dye
Turning to B1, the binding result in assay [1] and in assay [2] was “binds” throughout.
